Assay [1] deals with scaffoldin CipC of R. cellulolyticum (R. cellulolyticum (endogenous in R. cellulolyticum H10)). The assay is described as follows: SEC; cellulose-bound proteins of 6-day cultures eluted with distilled water, Superdex 200 10/300 GL in 20 mM Tris-HCl pH 7.8, 150 mM NaCl, 1 mM CaCl2; cellulosomal and free fractions analysed by SDS-PAGE and western blot (anti-His tag, anti-Cel48F, anti-Cel9G). Background: In gel filtration, larger molecules generally elute earlier.

Assay [2] has the same target. Nature of the assay: far-Western, overlay or dot blot; size exclusion fractions boiled, SDS-PAGE, transfer on nitrocellulose, probed with Cel5A labeled with Alexa Fluor 488; only the binder purified.

No constants are given. Whether binding was seen depends on the method and setting. A result given as binding can be weak or reduced; the word gives no strength.

B1: Cel48F, major cellulosomal cellulase of R. cellulolyticum (endogenous) (enzyme, UniProt P37698 30-722)
chain: ASSPANKVYQDRFESMYSKIKDPANGYFSEQGIPYHSIETLMVEAPDYGHVTTSEAMSYYMWLEAMHGRFSGDFTGFDKSWSVTEQYLIPTEKDQPNTSMSRYDANKPATYAPEFQDPSKYPSPLDTSQPVGRDPINSQLTSAYGTSMLYGMHWILDVDNWYGFGARADGTSKPSYINTFQRGEQESTWETIPQPCWDEHKFGGQYGFLDLFTKDTGTPAKQFKYTNAPDADARAVQATYWADQWAKEQGKSVSTSVGKATKMGDYLRYSFFDKYFRKIGQPSQAGTGYDAAHYLLSWYYAWGGGIDSTWSWIIGSSHNHFGYQNPFAAWVLSTDANFKPKSSNGASDWAKSLDRQLEFYQWLQSAEGAIAGGATNSWNGRYEAVPSGTSTFYGMGYVENPVYADPGSNTWFGMQVWSMQRVAELYYKTGDARAKKLLDKWAKWINGEIKFNADGTFQIPSTIDWEGQPDTWNPTQGYTGNANLHVKVVNYGTDLGCASSLANTLTYYAAKSGDETSRQNAQKLLDAMWNNYSDSKGISTVEQRGDYHRFLDQEVFVPAGWTGKMPNGDVIKSGVKFIDIRSKYKQDPEWQTMVAALQAGQVPTQRLHRFWAQSEFAVANGVYAILFPDQGPEKLLGDVNGDETVDAIDLAILKKYLLNSSTTINTANADMNSDNAIDAIDYALLKKALLSIQ
Consider B1, for which, in assay [1], the binding entry is “binds”.

B2: Cel9G, cellulosomal cellulase of R. cellulolyticum (endogenous) (enzyme, UniProt P37700 36-725)
chain: AGTYNYGEALQKSIMFYEFQRSGDLPADKRDNWRDDSGMKDGSDVGVDLTGGWYDAGDHVKFNLPMSYTSAMLAWSLYEDKDAYDKSGQTKYIMDGIKWANDYFIKCNPTPGVYYYQVGDGGKDHSWWGPAEVMQMERPSFKVDASKPGSAVCASTAASLASAAVVFKSSDPTYAEKCISHAKNLFDMADKAKSDAGYTAASGYYSSSSFYDDLSWAAVWLYLATNDSTYLDKAESYVPNWGKEQQTDIIAYKWGQCWDDVHYGAELLLAKLTNKQLYKDSIEMNLDFWTTGVNGTRVSYTPKGLAWLFQWGSLRHATTQAFLAGVYAEWEGCTPSKVSVYKDFLKSQIDYALGSTGRSFVVGYGVNPPQHPHHRTAHGSWTDQMTSPTYHRHTIYGALVGGPDNADGYTDEINNYVNNEIACDYNAGFTGALAKMYKHSGGDPIPNFKAIEKITNDEVIIKAGLNSTGPNYTEIKAVVYNQTGWPARVTDKISFKYFMDLSEIVAAGIDPLSLVTSSNYSEGKNTKVSGVLPWDVSNNVYYVNVDLTGENIYPGGQSACRREVQFRIAAPQGTTYWNPKNDFSYDGLPTTSTVNTVTNIPVYDNGVKVFGNEPAGGSENPDPEILYGDVNSDKNVDALDFAALKKYLLGGTSSIDVKAADTYKDGNIDAIDMATLKKYLLGTITQLPQG
For the molecule B2, the binding entry in assay [1] is recorded as “binds”.

B3: fluorescently labeled R. cellulolyticum cellulosomal cellulase Cel5A (enzyme, UniProt P17901 27-475)
chain: YDASLIPNLQIPQKNIPNNDGMNFVKGLRLGWNLGNTFDAFNGTNITNELDYETSWSGIKTTKQMIDAIKQKGFNTVRIPVSWHPHVSGSDYKISDVWMNRVQEVVNYCIDNKMYVILNTHHDVDKVKGYFPSSQYMASSKKYITSVWAQIAARFANYDEHLIFEGMNEPRLVGHANEWWPELTNSDVVDSINCINQLNQDFVNTVRATGGKNASRYLMCPGYVASPDGATNDYFRMPNDISGNNNKIIVSVHAYCPWNFAGLAMADGGTNAWNINDSKDQSEVTWFMDNIYNKYTSRGIPVIIGECGAVDKNNLKTRVEYMSYYVAQAKARGILCILWDNNNFSGTGELFGFFDRRSCQFKFPEIIDGMVKYAFEAKTDPDPVIVYGDYNNDGNVDALDFAGLKKYIMAADHAYVKNLDVNLDNEVNAFDLAILKKYLLGMVSKLPSN
modifications: labeled with Alexa Fluor 488 succinimidyl ester dye
As for B3, the binding entry in assay [2] is recorded as “binds”.

The values are drawn from paper PMC4533799.
